Results deposited as PubChem BioAssay AID686938 (Drosophila RNAi Screening Center, 2013).

Screen: 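Looking for CRAC channel components and the factors controlling them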 (primary screen)
System: Drosophila S2R+ cells
Reagent: long dsRNA against Drosophila genes, about 0.25 µg dsRNA per well, roughly 10,000 cells
Duration: 5 days of knock-down before the calcium assay
Challenge: thapsigargin (SERCA pump blocker) to empty calcium stores; entry signal taken 4 min after adding it
Measured: 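Per-well fluo-4 fluorescence in two replicates, unnormalised, measured in resting cells and 4 min after store depletion by the SERCA blocker thapsigargin; ratio of the two present in few wells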
Scale: calcium entry signal: higher = stronger calcium signal after store depletion; resting calcium signal: higher = higher resting calcium signal
Units: calcium entry signal in fluorescence units; resting calcium signal in fluorescence units
Rule for the call: 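Hit if the duplicate-averaged plate z-score for entry over resting signal is under −3; wells with weak total dye signal (Fmax z < −2) or more than 5 off-targets removed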
Meaning of the calls: active = strongly reduced calcium entry; inactive = no strong reduction
The screen tested about 23,000 reagents; below is an unselected part of those with a known target gene and a result. In the full data, 75 (0.33%) are marked active. 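Raw plate signals without normalisation; calls rest on plate z-scores that were not deposited; ratio present for only 364 wells.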 Not stated in the record: the dose of the treatment.

Depletion of CG7987 [DRSC16357] came out at: calcium entry signal, replicate 1 = 2.71e7; calcium entry signal, replicate 2 = 4.49e7; resting calcium signal, replicate 1 = 1.28e7; resting calcium signal, replicate 2 = 1.95e7; inactive.
With knock-down of Rbp4 (RNA-binding protein 4) [DRSC16818], the screen gave calcium entry signal, replicate 1 = 3.82e7; calcium entry signal, replicate 2 = 6.51e7; resting calcium signal, replicate 1 = 1.78e7; resting calcium signal, replicate 2 = 6.97e7; inactive.
CG46441 [DRSC15561] scored calcium entry signal, replicate 1 = 3.68e7; calcium entry signal, replicate 2 = 3.88e7; resting calcium signal, replicate 1 = 1.86e7; resting calcium signal, replicate 2 = 1.73e7; inactive.
Against CG43183 [DRSC05113], the entry reads calcium entry signal, replicate 1 = 2.25e7; calcium entry signal, replicate 2 = 4.61e7; resting calcium signal, replicate 1 = 1.29e7; resting calcium signal, replicate 2 = 4.52e7; inactive.
For Hecw (Hecw ubiquitin protein ligase) [DRSC18261], the values are calcium entry signal, replicate 1 = 3.88e7; calcium entry signal, replicate 2 = 5.53e7; resting calcium signal, replicate 1 = 1.92e7; resting calcium signal, replicate 2 = 2.54e7; inactive.
Hecw (Hecw ubiquitin protein ligase) [DRSC18276] showed calcium entry signal, replicate 1 = 3.83e7; calcium entry signal, replicate 2 = 5.91e7; resting calcium signal, replicate 1 = 1.94e7; resting calcium signal, replicate 2 = 2.74e7; inactive.
CG17575 [DRSC06682] gave calcium entry signal, replicate 1 = 3.35e7; calcium entry signal, replicate 2 = 3.91e7; resting calcium signal, replicate 1 = 1.76e7; resting calcium signal, replicate 2 = 1.67e7; inactive.
Silencing of CG34232 [DRSC05332] resulted in: calcium entry signal, replicate 1 = 4.39e7; calcium entry signal, replicate 2 = 5.64e7; resting calcium signal, replicate 1 = 1.73e7; resting calcium signal, replicate 2 = 2.29e7; inactive.
For Naxe (NAD(P)HX epimerase) [DRSC18251] the deposit lists calcium entry signal, replicate 1 = 3.60e7; calcium entry signal, replicate 2 = 4.17e7; resting calcium signal, replicate 1 = 1.79e7; resting calcium signal, replicate 2 = 1.82e7; inactive.
Against CG18130 [DRSC19790] the deposit lists calcium entry signal, replicate 1 = 4.13e7; calcium entry signal, replicate 2 = 5.59e7; resting calcium signal, replicate 1 = 2.03e7; resting calcium signal, replicate 2 = 2.73e7; inactive.
CG32668 [DRSC18879] scored calcium entry signal, replicate 1 = 3.30e7; calcium entry signal, replicate 2 = 3.15e7; resting calcium signal, replicate 1 = 1.57e7; resting calcium signal, replicate 2 = 1.66e7; inactive.
After knock-down of AsnS (Asparagine synthetase) [DRSC11468], the record shows calcium entry signal, replicate 1 = 3.28e7; calcium entry signal, replicate 2 = 3.57e7; resting calcium signal, replicate 1 = 1.63e7; resting calcium signal, replicate 2 = 1.56e7; inactive.
Against Rdh (Red herring) [DRSC08063], the values are calcium entry signal, replicate 1 = 3.92e7; calcium entry signal, replicate 2 = 4.65e7; resting calcium signal, replicate 1 = 2.08e7; resting calcium signal, replicate 2 = 2.20e7; inactive.
For Rdh (Red herring) [DRSC08434], the entry reads calcium entry signal, replicate 1 = 2.61e7; calcium entry signal, replicate 2 = 2.86e7; resting calcium signal, replicate 1 = 1.67e7; resting calcium signal, replicate 2 = 1.66e7; inactive.
For CR16735 (pseudo) [DRSC15144], the values are calcium entry signal, replicate 1 = 4.57e7; calcium entry signal, replicate 2 = 3.70e7; resting calcium signal, replicate 1 = 2.22e7; resting calcium signal, replicate 2 = 1.62e7; inactive.
Knock-down of CG3473 [DRSC01915] gave: calcium entry signal, replicate 1 = 4.67e7; calcium entry signal, replicate 2 = 3.03e7; resting calcium signal, replicate 1 = 1.99e7; resting calcium signal, replicate 2 = 1.42e7; inactive.
Art1 (Arginine methyltransferase 1) [DRSC16063] gave calcium entry signal, replicate 1 = 4.42e7; calcium entry signal, replicate 2 = 4.66e7; resting calcium signal, replicate 1 = 1.85e7; resting calcium signal, replicate 2 = 2.21e7; inactive.
With knock-down of CG6362 [DRSC07413], the screen gave calcium entry signal, replicate 1 = 3.91e7; calcium entry signal, replicate 2 = 4.99e7; resting calcium signal, replicate 1 = 1.75e7; resting calcium signal, replicate 2 = 2.22e7; inactive.
After knock-down of CG6041 [DRSC18396] the results were calcium entry signal, replicate 1 = 3.76e7; calcium entry signal, replicate 2 = 4.47e7; resting calcium signal, replicate 1 = 1.86e7; resting calcium signal, replicate 2 = 2.02e7; inactive.
After knock-down of Srg1 (Sting-regulated gene 1) [DRSC14640], the screen gave calcium entry signal, replicate 1 = 3.50e7; calcium entry signal, replicate 2 = 8.12e7; resting calcium signal, replicate 1 = 1.75e7; resting calcium signal, replicate 2 = 2.91e7; inactive.
Against CG31928 [DRSC00293], the entry reads calcium entry signal, replicate 1 = 4.54e7; resting calcium signal, replicate 1 = 2.48e7; inactive.

A run of entries of the results above, as a working copy:
CG17575 [DRSC06682]: calcium entry signal, replicate 1 = 3.35e7; calcium entry signal, replicate 2 = 3.91e7; resting calcium signal, replicate 1 = 1.76e7; resting calcium signal, replicate 2 = 1.67e7; Outcome = inactive
CG34232 [DRSC05332]: calcium entry signal, replicate 1 = 4.39e7; calcium entry signal, replicate 2 = 5.64e7; resting calcium signal, replicate 1 = 1.73e7; resting calcium signal, replicate 2 = 2.29e7; Outcome = inactive
